Paper PMC4606987
No constants are given. Whether binding was seen depends on the method and setting. In cells and extracts the contact can be indirect. Some results given as binding are weak or reduced against the parent protein; the word gives no strength.

Chains of the proteins cited; added tags and fusions are not shown.
UniProt Q96FW1: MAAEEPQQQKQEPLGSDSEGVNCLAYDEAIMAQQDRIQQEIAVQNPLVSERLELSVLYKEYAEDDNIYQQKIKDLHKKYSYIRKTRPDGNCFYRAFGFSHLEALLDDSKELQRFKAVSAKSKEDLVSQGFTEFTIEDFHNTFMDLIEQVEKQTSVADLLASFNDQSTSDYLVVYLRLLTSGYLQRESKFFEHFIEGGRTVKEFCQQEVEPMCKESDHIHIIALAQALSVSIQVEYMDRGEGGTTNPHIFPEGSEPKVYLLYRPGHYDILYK

Key:
[1] = target: OTUB1 (OTU domain-containing ubiquitin aldehyde-binding proteins 1) (human (endogenous in MCF-7)) (UniProt Q96FW1); test: co-IP; IP with an OTUB1 or a FOXM1 antibody (control IgG beside it) from lysates of MCF-7 and MCF-7EpiR cells, western blot for FOXM1 or OTUB1; also after 1 uM epirubicin for 0, 6 and 24 h
[2] = target: Flag-tagged OTUB1 (UniProt Q96FW1); test: co-IP; FOXM1 co-precipitated with transiently transfected Flag-tagged OTUB1 (Supplementary Figure S1b)

binding [1]: binds | binding [2]: binds
B1: Forkhead box M1 (FOXM1) transcription factor (protein, UniProt Q08050 1-763)
chain: MKTSPRRPLILKRRRLPLPVQNAPSETSEEEPKRSPAQQESNQAEASKEVAESNSCKFPAGIKIINHPTMPNTQVVAIPNNANIHSIITALTAKGKESGSSGPNKFILISCGGAPTQPPGLRPQTQTSYDAKRTEVTLETLGPKPAARDVNLPRPPGALCEQKRETCADGEAAGCTINNSLSNIQWLRKMSSDGLGSRSIKQEMEEKENCHLEQRQVKVEEPSRPSASWQNSVSERPPYSYMAMIQFAINSTERKRMTLKDIYTWIEDHFPYFKHIAKPGWKNSIRHNLSLHDMFVRETSANGKVSFWTIHPSANRYLTLDQVFKPLDPGSPQLPEHLESQQKRPNPELRRNMTIKTELPLGARRKMKPLLPRVSSYLVPIQFPVNQSLVLQPSVKVPLPLAASLMSSELARHSKRVRIAPKVLLAEEGIAPLSSAGPGKEEKLLFGEGFSPLLPVQTIKEEEIQPGEEMPHLARPIKVESPPLEEWPSPAPSFKEESSHSWEDSSQSPTPRPKKSYSGLRSPTRCVSEMLVIQHRERRERSRSRRKQHLLPPCVDEPELLFSEGPSTSRWAAELPFPADSSDPASQLSYSQEVGGPFKTPIKETLPISSTPSKSVLPRTPESWRLTPPAKVGGLDFSPVQTSQGASDPLPDPLGLMDLSTTPLQSAPPLESPQRLLSSEPLDLISVPFGNSSPSDIDVPKPGSPEPQVSGLAANRSLTEGLVLDTMNDSLSKILLDISFPGLDEDPLGPDNINWSQFIPELQ
